Some of these results come from one statement about several compounds together.
What was measured:
Type in all cases: in vivo
[1] = test system: Spodoptera littoralis; experiment: Spodoptera littoralis (Egyptian cotton leaf worm) leaf disc test; conditions: application rate 200 ppm; cotton leaf discs sprayed, L1 larvae; 3 days after infestation
Protocol: Spodoptera littoralis (Egyptian Cotton Leaf Worm)
Cotton leaf discs were placed on agar in 24-well microtiter plates and sprayed with aqueous test solutions prepared from 10′000 ppm DMSO stock solutions. After drying the leaf discs were infested with five L1 larvae. The samples were assessed for mortality, anti-feedant effect, and growth inhibition in comparison to untreated samples 3 days after infestation. Control of Spodoptera littoralis by a test sample is when at least one of mortality, anti-feedant effect, and growth inhibition is higher than the untreated sample.

[2] = test system: Diabrotica Balteata; experiment: Diabrotica balteata (corn root worm) maize sprout test; conditions: application rate 200 ppm; maize sprouts sprayed, L2 larvae; 4 days after infestation
Protocol: Diabrotica Balteata, (Corn Root Worm)
Maize sprouts, placed on an agar layer in 24-well microtiter plates were treated with aqueous test solutions prepared from 10′000 ppm DMSO stock solutions by spraying. After drying, the plates were infested with L2 larvae (6 to 10 per well). The samples were assessed for mortality and growth inhibition in comparison to untreated samples 4 days after infestation.

[3] = test system: Plutella xylostella; experiment: Plutella xylostella (diamond back moth) artificial diet test; conditions: application rate 200 ppm, L2 larvae, 5 days after infestation
Protocol: Plutella xylostella (Diamond Back Moth):
24-well microtiter plates with artificial diet were treated with aqueous test solutions prepared from 10′000 ppm DMSO stock solutions by pipetting. After drying, the plates were infested with L2 larvae (10 to 15 per well). The samples were assessed for mortality and growth inhibition in comparison to untreated samples 5 days after infestation.

[4] = test system: Thrips tabaci; experiment: Thrips tabaci (onion thrips) leaf disc test; conditions: application rate 200 ppm; sunflower leaf discs sprayed, mixed ages; 6 days after infestation
Protocol: Thrips tabaci (Onion Thrips):
Sunflower leaf discs were placed on agar in 24-well microtiter plates and sprayed with aqueous test solutions prepared from 10′000 ppm DMSO stock solutions. After drying the leaf discs were infested with a thrips population of mixed ages. The samples were assessed for mortality 6 days after infestation.

[5-[4-[4-chloro-3-[(1- cyanocyclopropyl)- ethyl-carbamoyl] phenyl]pyrazol- 1-yl]-1-methyl-4- (trifluoromethyl) pyrazol-3-yl] 1,1,2,2,3,3,4,4,4- nonafluorobutane-1- sulfonate [Compound 56]
at least 80%: control (at least one of mortality, anti-feedant effect, growth inhibition) [1] | control (mortality and growth inhibition) [2] | control (mortality and growth inhibition) [3] | control (mortality) [4]
